Some of the results follow.
Key:
Assay in all cases: log2 fold change, soluble protein after heating vs DMSO (PISA); higher = thermal stabilisation; K562 lysate, 10 uM; active = over 0.2 and 3.5 SD of the protein, either way, in both replicates (recomputed)
[1] = compound: C#Cc1cccc(Nc2ncnc3cc(OCCOC)c(OCCOC)cc23)c1 [erlotinib]
Method in brief: (§1)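 To prepare the extract, K562 pellets were dounce-homogenised in PBS pH 7.4 with 1 mM MgCl2, giving crude material at 1 mg/mL protein. This was treated with 10 μM compound for 30 min, then heated in aliquots for 3 min over 48°C-58°C before pooling and addition of NP-40 to 0.5% at 4°C. Centrifugation at 21,000xg for 90 min left soluble protein in the supernatant, which TMTpro 16plex LC-MS/MS quantified with equalised channel sums. Results are log-two fold changes in thermal stability compared with solvent controls, from duplicates.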

Chains of the proteins cited; added tags and fusions are not shown. Lines headed by an entry give the natural chain unless they say otherwise; changes in a name come on top.
UniProt Q5TCQ9: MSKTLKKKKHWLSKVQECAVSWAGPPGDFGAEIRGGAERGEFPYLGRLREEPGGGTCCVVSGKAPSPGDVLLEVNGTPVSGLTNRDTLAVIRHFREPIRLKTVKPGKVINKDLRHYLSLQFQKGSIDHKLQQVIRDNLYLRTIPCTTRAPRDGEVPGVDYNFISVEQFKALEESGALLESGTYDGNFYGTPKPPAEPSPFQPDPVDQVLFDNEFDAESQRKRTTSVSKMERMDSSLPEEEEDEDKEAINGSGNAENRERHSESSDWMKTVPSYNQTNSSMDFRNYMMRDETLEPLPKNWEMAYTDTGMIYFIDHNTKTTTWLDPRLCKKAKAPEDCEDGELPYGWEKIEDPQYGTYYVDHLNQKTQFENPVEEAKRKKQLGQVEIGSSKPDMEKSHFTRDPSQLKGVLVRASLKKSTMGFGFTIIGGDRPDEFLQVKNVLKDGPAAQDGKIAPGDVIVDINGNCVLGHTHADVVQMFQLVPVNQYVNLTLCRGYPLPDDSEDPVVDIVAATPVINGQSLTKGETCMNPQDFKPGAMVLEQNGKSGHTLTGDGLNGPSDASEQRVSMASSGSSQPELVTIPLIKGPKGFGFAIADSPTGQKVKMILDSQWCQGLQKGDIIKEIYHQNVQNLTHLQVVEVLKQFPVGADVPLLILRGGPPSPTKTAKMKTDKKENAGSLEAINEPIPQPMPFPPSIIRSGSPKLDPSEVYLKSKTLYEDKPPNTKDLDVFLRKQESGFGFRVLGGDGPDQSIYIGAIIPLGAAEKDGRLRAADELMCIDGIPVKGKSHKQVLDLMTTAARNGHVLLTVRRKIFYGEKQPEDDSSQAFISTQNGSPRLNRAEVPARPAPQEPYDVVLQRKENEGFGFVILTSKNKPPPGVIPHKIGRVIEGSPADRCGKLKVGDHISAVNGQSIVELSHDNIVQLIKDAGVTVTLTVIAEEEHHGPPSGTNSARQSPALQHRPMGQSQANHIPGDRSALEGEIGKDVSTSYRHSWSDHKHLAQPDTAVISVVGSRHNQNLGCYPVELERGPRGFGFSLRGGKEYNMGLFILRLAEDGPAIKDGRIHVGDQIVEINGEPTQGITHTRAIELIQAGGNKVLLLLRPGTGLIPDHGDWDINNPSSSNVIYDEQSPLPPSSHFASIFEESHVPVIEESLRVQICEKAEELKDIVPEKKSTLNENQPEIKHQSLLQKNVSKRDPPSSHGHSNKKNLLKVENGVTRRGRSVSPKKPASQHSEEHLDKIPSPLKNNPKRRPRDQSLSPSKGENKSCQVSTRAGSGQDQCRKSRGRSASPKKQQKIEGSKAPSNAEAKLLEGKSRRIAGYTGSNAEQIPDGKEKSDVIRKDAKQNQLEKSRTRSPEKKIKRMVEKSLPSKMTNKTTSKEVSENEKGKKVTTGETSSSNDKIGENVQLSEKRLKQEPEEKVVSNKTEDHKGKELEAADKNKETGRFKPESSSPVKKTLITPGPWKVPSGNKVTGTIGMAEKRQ
UniProt Q9NU23: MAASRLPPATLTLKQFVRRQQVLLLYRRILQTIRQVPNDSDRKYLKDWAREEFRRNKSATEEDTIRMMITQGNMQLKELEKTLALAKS
UniProt Q8WV07: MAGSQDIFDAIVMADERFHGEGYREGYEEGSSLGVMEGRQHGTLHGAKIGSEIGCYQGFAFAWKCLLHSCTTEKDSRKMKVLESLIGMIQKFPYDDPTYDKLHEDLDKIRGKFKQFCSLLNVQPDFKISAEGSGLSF
UniProt Q9ULX9: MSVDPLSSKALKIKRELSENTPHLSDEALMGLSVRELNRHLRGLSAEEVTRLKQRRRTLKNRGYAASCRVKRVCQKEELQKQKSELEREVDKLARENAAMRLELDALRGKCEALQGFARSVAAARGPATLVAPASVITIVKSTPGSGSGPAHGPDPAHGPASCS
UniProt Q9Y2U5: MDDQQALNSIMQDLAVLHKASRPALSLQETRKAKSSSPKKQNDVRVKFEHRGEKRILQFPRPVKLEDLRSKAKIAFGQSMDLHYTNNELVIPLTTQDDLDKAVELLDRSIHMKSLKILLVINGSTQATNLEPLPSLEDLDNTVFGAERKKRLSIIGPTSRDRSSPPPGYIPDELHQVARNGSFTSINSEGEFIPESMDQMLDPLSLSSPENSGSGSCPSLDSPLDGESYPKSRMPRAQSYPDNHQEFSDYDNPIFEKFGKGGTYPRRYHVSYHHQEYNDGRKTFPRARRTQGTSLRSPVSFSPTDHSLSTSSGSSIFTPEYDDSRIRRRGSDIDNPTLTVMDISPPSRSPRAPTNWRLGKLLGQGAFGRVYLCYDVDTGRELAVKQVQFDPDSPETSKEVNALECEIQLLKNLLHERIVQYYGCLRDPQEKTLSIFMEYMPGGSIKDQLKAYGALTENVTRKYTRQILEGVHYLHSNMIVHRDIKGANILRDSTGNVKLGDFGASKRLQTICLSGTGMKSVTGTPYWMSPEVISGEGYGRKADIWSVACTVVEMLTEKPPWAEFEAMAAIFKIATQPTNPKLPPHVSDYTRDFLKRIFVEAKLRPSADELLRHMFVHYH
UniProt O60337: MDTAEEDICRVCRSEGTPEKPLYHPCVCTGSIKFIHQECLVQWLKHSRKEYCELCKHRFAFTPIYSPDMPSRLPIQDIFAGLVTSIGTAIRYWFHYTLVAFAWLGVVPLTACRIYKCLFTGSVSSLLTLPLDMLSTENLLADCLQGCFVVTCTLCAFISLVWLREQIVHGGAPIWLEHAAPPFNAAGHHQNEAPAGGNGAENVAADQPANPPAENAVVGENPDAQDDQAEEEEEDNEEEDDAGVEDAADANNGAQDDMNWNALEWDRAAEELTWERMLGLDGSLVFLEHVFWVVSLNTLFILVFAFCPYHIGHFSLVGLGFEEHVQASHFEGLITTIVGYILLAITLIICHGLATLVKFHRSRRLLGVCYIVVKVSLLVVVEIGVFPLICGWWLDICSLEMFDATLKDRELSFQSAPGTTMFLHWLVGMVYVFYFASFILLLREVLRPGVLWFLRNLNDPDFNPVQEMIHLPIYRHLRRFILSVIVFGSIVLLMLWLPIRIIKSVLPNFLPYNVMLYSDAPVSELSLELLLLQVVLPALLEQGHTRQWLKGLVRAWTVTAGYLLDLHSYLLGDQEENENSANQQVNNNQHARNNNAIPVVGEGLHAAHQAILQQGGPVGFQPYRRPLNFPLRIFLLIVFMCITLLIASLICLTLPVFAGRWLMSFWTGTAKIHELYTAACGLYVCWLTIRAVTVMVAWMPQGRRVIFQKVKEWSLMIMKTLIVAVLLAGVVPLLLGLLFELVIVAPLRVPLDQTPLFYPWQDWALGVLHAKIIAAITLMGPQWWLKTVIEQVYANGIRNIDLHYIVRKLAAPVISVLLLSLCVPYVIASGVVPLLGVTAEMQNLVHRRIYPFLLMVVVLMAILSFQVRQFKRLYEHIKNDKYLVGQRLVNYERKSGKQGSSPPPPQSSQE
UniProt Q14244: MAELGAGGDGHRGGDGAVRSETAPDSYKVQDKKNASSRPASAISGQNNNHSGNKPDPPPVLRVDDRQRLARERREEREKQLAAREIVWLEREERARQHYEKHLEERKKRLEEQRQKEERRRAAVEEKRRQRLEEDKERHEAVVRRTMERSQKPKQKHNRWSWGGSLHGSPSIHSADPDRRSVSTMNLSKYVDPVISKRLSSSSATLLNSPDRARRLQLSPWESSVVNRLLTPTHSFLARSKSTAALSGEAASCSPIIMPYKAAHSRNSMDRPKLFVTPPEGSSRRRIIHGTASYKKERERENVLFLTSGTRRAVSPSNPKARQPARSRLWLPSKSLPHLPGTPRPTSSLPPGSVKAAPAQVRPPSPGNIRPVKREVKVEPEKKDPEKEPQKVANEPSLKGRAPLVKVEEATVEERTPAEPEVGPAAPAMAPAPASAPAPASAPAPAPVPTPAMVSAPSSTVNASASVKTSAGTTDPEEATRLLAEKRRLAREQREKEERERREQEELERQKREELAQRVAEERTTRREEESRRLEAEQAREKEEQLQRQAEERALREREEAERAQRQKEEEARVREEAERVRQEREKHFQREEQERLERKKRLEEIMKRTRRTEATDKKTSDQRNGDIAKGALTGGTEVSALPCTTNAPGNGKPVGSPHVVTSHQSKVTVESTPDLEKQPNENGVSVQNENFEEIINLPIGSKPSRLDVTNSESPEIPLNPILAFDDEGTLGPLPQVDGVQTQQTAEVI
UniProt Q9BSK0: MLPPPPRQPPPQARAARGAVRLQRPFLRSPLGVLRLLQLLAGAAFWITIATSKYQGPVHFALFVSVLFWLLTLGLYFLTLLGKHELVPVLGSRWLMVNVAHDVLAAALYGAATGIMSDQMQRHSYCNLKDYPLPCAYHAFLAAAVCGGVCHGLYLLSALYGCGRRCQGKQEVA
UniProt Q9Y4K4: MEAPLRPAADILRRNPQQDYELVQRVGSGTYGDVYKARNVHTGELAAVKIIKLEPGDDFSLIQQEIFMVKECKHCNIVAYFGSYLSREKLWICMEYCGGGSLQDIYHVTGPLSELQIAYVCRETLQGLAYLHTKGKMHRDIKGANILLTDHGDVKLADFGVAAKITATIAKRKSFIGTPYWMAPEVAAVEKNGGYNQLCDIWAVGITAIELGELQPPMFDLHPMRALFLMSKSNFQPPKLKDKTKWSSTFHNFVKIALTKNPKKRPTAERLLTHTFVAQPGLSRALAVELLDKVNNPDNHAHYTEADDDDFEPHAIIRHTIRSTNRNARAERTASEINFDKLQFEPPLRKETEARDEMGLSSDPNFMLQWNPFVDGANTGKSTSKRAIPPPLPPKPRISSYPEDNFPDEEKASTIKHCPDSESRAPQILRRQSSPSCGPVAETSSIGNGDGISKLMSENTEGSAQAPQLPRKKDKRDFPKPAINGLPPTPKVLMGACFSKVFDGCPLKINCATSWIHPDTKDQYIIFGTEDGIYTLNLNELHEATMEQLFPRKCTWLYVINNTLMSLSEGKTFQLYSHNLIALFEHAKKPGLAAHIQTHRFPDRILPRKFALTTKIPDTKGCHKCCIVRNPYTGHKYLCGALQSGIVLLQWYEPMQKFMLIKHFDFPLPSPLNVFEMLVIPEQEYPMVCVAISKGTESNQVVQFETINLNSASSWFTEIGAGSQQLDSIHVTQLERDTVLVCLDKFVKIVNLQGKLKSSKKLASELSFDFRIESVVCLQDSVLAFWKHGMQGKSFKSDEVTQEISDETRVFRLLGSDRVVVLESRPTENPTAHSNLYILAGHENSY

[2] = compound: C/C(=N\NC(=O)C1=CC(=CC=C1)S(=O)(=O)N2CCOCC2)/C3=C(C=CC(=C3)Cl)O
Method in brief: as §1

[3] = compound: C1=CC(=CC=C1C2=NC3=C(N2)C=C(C=C3)C(=O)N)OC4=CC=C(C=C4)Cl
Method in brief: as §1

[4] = compound: C1=CC2=C(C=CC(=C2)/C=C\3/C(=O)NC(=NCC4=CC=CS4)S3)N=C1
Method in brief: as §1

[5] = compound: C1=CC2=NC=CN=C2C=C1/C=C/3\C(=O)NC(=O)S3
Method in brief: as §1

[6] = compound: C1=CC=C(C=C1)C2=NC(=C(N2)C3=CC=NC=C3)C4=CC(=C(C=C4)Cl)O
Method in brief: as §1

[7] = compound: C1=CC=C2C(=C1)C3=NNC4=CC=CC(=C43)C2=O
Method in brief: as §1

[8] = compound: C1CCN(C1)C(=O)NC2=CC=CC(=C2)NC3=NC=C(C(=N3)NCCC4=CN=CN4)Br
Method in brief: as §1

[9] = compound: C1CN(CCC1(CC2=CC=C(C=C2)Cl)N)C3=NC=NC4=C3C=CN4
Method in brief: as §1

[10] = compound: C1COCCN1CCN2C3=CC=CC=C3N=C2NC(=O)C4=CC(=CC=C4)[N+](=O)[O-] [IRAK-1-4 Inhibitor I]
Method in brief: as §1

[11] = compound: C=CC(=O)N1CCC[C@@H](n2nc(-c3ccc(Oc4ccccc4)cc3)c3c(N)ncnc32)C1 [ibrutinib]
Method in brief: as §1

[12] = compound: CC(=O)c1cnc2ccc(-c3cc(Cl)c(O)c(Cl)c3)nc2c1N[C@H]1CC[C@H](CN(C)C)CC1
Method in brief: as §1

[13] = compound: CC(C)(C)Cn1c(N)nc2ccc(-c3[nH]c(C(C)(C)C)nc3-c3ccc(F)cc3)nc21 [ralimetinib]
Method in brief: as §1

[14] = compound: CC(C)(O)CC(=O)NCCn1ccc2ncnc(Nc3ccc(Oc4cccc(C(F)(F)F)c4)c(Cl)c3)c21
Method in brief: as §1

[15] = compound: CC(C)C1=C2N=C(C=C(N2N=C1)NCC3=CC=CC=C3)NCCCCCCN
Method in brief: as §1

[16] = compound: CC1=C(C(CC(=O)N1)C2=CC=C(C=C2)C(F)(F)F)C(=O)NC3=C(C=C4C(=C3)C=NN4)F
Method in brief: as §1

[17] = compound: CC1=C(C2=C(C=C1)C(=O)C3=CC=CC=C3N2CCCN)C
Method in brief: as §1

[18] = compound: CC1=C(C=C(C=C1)NC(=O)C2=CC(=CC=C2)N(C)C)NC(=O)C3=CC=C(C=C3)O
Method in brief: as §1

[19] = compound: CC1=CC=C(C=C1)SC2=C3C=C(SC3=CN=C2)C(=O)N
Method in brief: as §1

[20] = compound: CC1=C(C=C(C=C1)NC(=O)C2=CC(=CC=C2)C(C)(C)C#N)NC3=CC4=C(C=C3)N=CN(C4=O)C
Method in brief: as §1

Measured: log2 fold change

MAGI3 isoform 1 (UniProt Q5TCQ9)
inactive: [1] -0.06 | [2] -0.015 | [3] -0.047 | [4] 0.068 | [5] -0.056 | [6] 0.026 | [7] -0.095 | [8] -0.016 | [9] 0.045 | [10] -0.071 | [11] 0.093 | [12] -0.015 | [13] 0.022 | [14] 0.105 | [15] 0.044 | [16] -0.106 | [17] -0.111 | [18] -0.02 | [19] 0.005

LYRM2 (UniProt Q9NU23)
inactive: [1] -0.01 | [2] -0.026 | [3] -0.015 | [4] -0.033 | [5] -0.094 | [6] 0.012 | [7] 0.007 | [8] -0.032 | [9] 0.016 | [10] -0.054 | [11] 0.019 | [12] -0.018 | [13] -0.022 | [14] -0.041 | [15] -0.036 | [16] -0.082 | [17] -0.05 | [20] -0.026 | [18] -0.023 | [19] -0.024

LTO1 (UniProt Q8WV07)
inactive: [1] 0.003 | [2] 0.034 | [3] 0.059 | [4] -0.123 | [5] -0.005 | [6] -0.006 | [7] 0.06 | [8] 0.102 | [9] -0.062 | [10] -0.034 | [11] 0.189 | [13] 0.026 | [14] -0.006 | [15] -0.041 | [16] -0.275 | [17] 0.001 | [20] -0.064 | [18] -0.028

MAFF (UniProt Q9ULX9)
inactive: [1] 0.011 | [2] -0.512 | [3] -0.093 | [4] 0.064 | [7] -0.024 | [8] 0.065 | [9] 0.022 | [12] -0.091 | [15] -0.166 | [20] -0.029 | [19] -0.078

MAP3K2 (UniProt Q9Y2U5)
inactive: [1] -0.022 | [2] 0.009 | [3] 0.032 | [4] 0.037 | [5] 0.06 | [7] -0.157 | [8] -0.303 | [9] -0.08 | [11] -0.103 | [15] -0.047 | [17] -0.159 | [20] 0.06

MARCHF6 (UniProt O60337)
active: [11] -0.395
inactive: [1] 0.004 | [2] 0.008 | [3] 0.101 | [4] 0.042 | [5] -0.202 | [7] -0.133 | [8] 0.047 | [9] -0.023 | [12] -0.021 | [15] -0.012 | [16] 0.014 | [17] 0.101 | [20] 0.004 | [19] 0.032

MAP7 (UniProt Q14244)
inactive: [1] -0.062 | [2] -0.139 | [3] 0.078 | [4] -0.058 | [5] -0.043 | [7] -0.067 | [8] -0.026 | [9] 0.01 | [11] 0.059 | [12] 0.026 | [15] -0.01 | [16] 0.028 | [17] -0.075 | [20] 0.07 | [19] 0.017

MACF1, A0A0A6YYJ5
inactive: [1] 0.009 | [2] 0.089 | [3] -0.013 | [4] -0.029 | [5] 0.036 | [6] 0.096 | [7] -0.133 | [8] 0.016 | [9] 0.071 | [10] -0.003 | [11] -0.006 | [13] -0.014 | [14] -0.041 | [15] 0.033 | [16] 0.035 | [17] -0.016 | [20] 0.011 | [18] 0.011

MARVELD1 (UniProt Q9BSK0)
inactive: [1] 0 | [2] -0.318 | [3] 0.025 | [4] 0.145 | [5] 0.029 | [7] -0.122 | [11] 0.148 | [15] 0.127 | [17] -0.317

MAP4K5 (UniProt Q9Y4K4)
inactive: [1] 0.032 | [2] -0.169 | [3] -0.025 | [4] -0.019 | [5] -0.002 | [6] 0.039 | [8] 0.089 | [9] -0.04 | [10] -0.001 | [11] 0.029 | [12] 0.108 | [13] 0.039 | [14] 0.002 | [15] 0.098 | [16] -0.003 | [17] 0.009 | [20] 0 | [18] 0.021 | [19] 0.025
